PubChem BioAssay AID602196 | INSERM, 2012
Screen: 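Modifiers of cisplatin sensitivity in A549 cells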. System: human A549 lung cancer cells. Knock-down reagent: siRNA pair against human genes. Time to read-out: 48 h transfection before cisplatin; time from cisplatin to read-out not stated. Treatment: cisplatin at a dose killing half of control-siRNA cells; exact dose and duration not given. Read-out: 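Cisplatin cell death as a shift from the 50% death seen with control siRNA; siRNAs toxic or growth-blocking alone scored 0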. Scale: two-siRNA summed score (-2 to +2): higher = both siRNAs protect from cisplatin killing; -2 means both sensitise; mean protection from cisplatin (shift in death) and protection from cisplatin (shift in death), siRNA C and protection from cisplatin (shift in death), siRNA D: higher = protection from cisplatin killing. Hit rule: 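Each siRNA scores 0 if harmful alone by LDH or WST-1, otherwise +1 if it reduces and -1 if it increases cisplatin killing; a gene is active when both siRNAs agree (sum +2 or -2)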. Calls: active = both siRNAs shift cisplatin killing the same way; inactive = no consistent shift, or siRNA harmful alone.
In all, the deposit lists about 23,000 reagents; shown is an unselected part. In the full data, 455 (2%) are marked active. 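Active includes both protection and sensitisation; some change values fall well beyond the stated -50 to +50 range.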 A number with no mark means an inactive call. Not stated in the record: the amount of reagent.

The first 4 entries, to show the layout:
gene | PubChem SID | two-siRNA summed score (-2 to +2) | mean protection from cisplatin (shift in death) (%) | protection from cisplatin (shift in death), siRNA C (%) | protection from cisplatin (shift in death), siRNA D (%)
TRIM8 (tripartite motif containing 8) | SID131510855 | 0 | 3.7 | 7.5 | -0.1
MACC1 (MET transcriptional regulator MACC1) | SID131501062 | -1 | -12.7 | -17.7 | -7.7
LOC401147 | SID131504704 | 0 | -4.7 | 1.6 | -11.1
LOC146167 | SID131513952 | 0 | 7.2 | 11.6 | 2.9

The listing, repeating the preview:
gene | PubChem SID | two-siRNA summed score (-2 to +2) | mean protection from cisplatin (shift in death) (%) | protection from cisplatin (shift in death), siRNA C (%) | protection from cisplatin (shift in death), siRNA D (%)
TRIM8 (tripartite motif containing 8) | SID131510855 | 0 | 3.7 | 7.5 | -0.1
MACC1 (MET transcriptional regulator MACC1) | SID131501062 | -1 | -12.7 | -17.7 | -7.7
LOC401147 | SID131504704 | 0 | -4.7 | 1.6 | -11.1
LOC146167 | SID131513952 | 0 | 7.2 | 11.6 | 2.9
OR5C1 (olfactory receptor family 5 subfamily C member 1) | SID131501671 | -1 | -8.2 | -13.9 | -2.6
LOC402253 | SID131519756 | 1 | 7.3 | 11.8 | 2.7
PIR (pirin) | SID131510909 | 0 | 3.8 | 6.1 | 1.4
PIR (pirin) | SID131514922 | 0 | 8.4 | 7.1 | 9.8
CELF1 (CUGBP Elav-like family member 1) | SID131502033 | -1 | -5.7 | 13 | -24.5
EMILIN1 (elastin microfibril interfacer 1) | SID131516748 | 0 | 11.5 | 15.5 | 7.6
MORF4 (mortality factor 4 (pseudogene)) | SID131507091 | 0 | -0.6 | -1.7 | 0.6
MRGPRF (MAS related GPR family member F) | SID131506990 | 0 | -0.7 | -7.3 | 5.9
TOM1L1 (target of myb1 like 1 membrane trafficking protein) | SID131521207 | 1 | 12.6 | 14.2 | 11
GNPDA1 (glucosamine-6-phosphate deaminase 1) | SID131507876 | 0 | 0.4 | -1.2 | 2
MYO9A (myosin IXA) | SID131505197 | 0 | -3.6 | -4.2 | -3
LOC391707 (chromatin accessibility complex subunit 1 pseudogene) | SID131511165 | 0 | 4 | 3.1 | 5
CNPY4 (canopy FGF signaling regulator 4) | SID131518490 | 0 | 20.4 | 32.1 | 8.8
TPT1 (tumor protein, translationally-controlled 1) | SID131519369 | 1 | 5.1 | 0.8 | 9.5
ENO3 (enolase 3) | SID131519920 | 1 | 8 | 16.8 | -0.8
YJU2B (YJU2 splicing factor homolog B) | SID131504979 | 0 | -4 | -19.9 | 11.8
TMEM54 (transmembrane protein 54) | SID131504778 | 0 | -4.5 | -4 | -5.1
LINC02914 (long independently transcribed non-coding RNA 2914) | SID131507407 | 0 | -0.2 | 1 | -1.4
LOC286103 | SID131514667 | 0 | 8.1 | 6 | 10.2
NT5C2 (5'-nucleotidase, cytosolic II) | SID131522150 | 1 | 16.5 | 26.4 | 6.6
DPF3 (double PHD fingers 3) | SID131506163 | 0 | -1.9 | -7.2 | 3.3
MRPL44 (mitochondrial ribosomal protein L44) | SID131514493 | 0 | 7.9 | 15 | 0.7
LOC401860 | SID131523074 | 2 (active) | 18.8 | 19.3 | 18.3
SEC14L2 (SEC14 like lipid binding 2) | SID131507104 | 0 | -0.6 | 7.1 | -8.2
CRYGS (crystallin gamma S) | SID131500954 | -1 | -13.9 | -10.8 | -16.9
EZRP1 (EZR pseudogene 1) | SID131507960 | 0 | 0.5 | -4.9 | 5.8
LOC440560 | SID131501758 | -1 | -7.5 | -12.6 | -2.5
CHMP4C (charged multivesicular body protein 4C) | SID131505017 | 0 | -4 | -3.3 | -4.6
LMAN1 (lectin, mannose binding 1) | SID131505663 | 0 | -2.8 | 0.3 | -5.8
LOC400617 | SID131515078 | 0 | 8.6 | 8.2 | 9
B4GALT4 (beta-1,4-galactosyltransferase 4) | SID131518064 | 0 | 16.2 | 24.1 | 8.4
SIRT6 (sirtuin 6) | SID131502822 | 0 | -27.3 | -20.5 | -34.1
PITPNM1 (phosphatidylinositol transfer protein membrane associated 1) | SID131509587 | 0 | 2.3 | -5.6 | 10.2
STX8 (syntaxin 8) | SID131522512 | 1 | 19.4 | 16 | 22.7
DENND2A (DENN domain containing 2A) | SID131522392 | 1 | 18.1 | 24.2 | 12.1
LOC400955 | SID131511047 | 0 | 3.9 | 7.7 | 0.1
GALR2 (galanin receptor 2) | SID131509060 | 0 | 1.8 | 13.2 | -9.6
OR12D3 (olfactory receptor family 12 subfamily D member 3) | SID131520347 | 1 | 9.6 | 13.3 | 5.9
PGBD3 (piggyBac transposable element derived 3) | SID131510289 | 0 | 3.1 | 7.6 | -1.4
SERBP1 (SERPINE1 mRNA binding protein 1) | SID131506411 | 0 | -1.6 | 2.5 | -5.6
SERBP1 (SERPINE1 mRNA binding protein 1) | SID131517511 | 0 | 13.7 | 8.1 | 19.3
TACR3 (tachykinin receptor 3) | SID131502219 | -1 | -4.2 | 8.5 | -16.9
ITGA6 (integrin subunit alpha 6) | SID131500556 | -1 | -21.7 | -20.3 | -23.2
NRIP2 (nuclear receptor interacting protein 2) | SID131516054 | 0 | 10.2 | 13.1 | 7.2
NDUFB6 (NADH:ubiquinone oxidoreductase subunit B6) | SID131521196 | 1 | 12.6 | 10.4 | 14.8
CHRNA1 (cholinergic receptor nicotinic alpha 1 subunit) | SID131502011 | -1 | -5.9 | -9 | -2.9
LOC401135 | SID131512555 | 0 | 5.6 | 18.1 | -6.9
ZC3H7A (zinc finger CCCH-type containing 7A) | SID131504408 | 0 | -5.5 | -5.1 | -5.9
FLJ36492 | SID131505021 | 0 | -4 | -7.1 | -0.8
TST (thiosulfate sulfurtransferase) | SID131510251 | 0 | 3 | -19.4 | 25.5
LOC442213 | SID131513322 | 0 | 6.5 | 4.9 | 8
EFCAB5 (EF-hand calcium binding domain 5) | SID131519012 | 1 | 0.8 | 6.8 | -5.3
PRSS22 (serine protease 22) | SID131502260 | -1 | -4 | 21.3 | -29.2
